Assay results taken from article PMC9663503, “Independently evolved viral effectors convergently suppress DELLA protein SLR1-mediated broad-spectrum antiviral immunity in rice” (Nature Communications, 2022).
No constants are given. Whether binding was seen depends on the method and setting. A result given as binding can be weak or reduced; the word gives no strength. Sequences can lack the tags named with a protein. For part of these data: In cells and extracts the contact can be indirect.

Experiments:
[1] = molecular target: T1, SLR1 (BiFC fusion used with OsJAZ proteins; YFP half not stated) (rice (Oryza sativa)) (UniProt Q7G7J6); assay: split reporter; BiFC; cYFP and nYFP fusions agro-infiltrated into N. benthamiana leaves, confocal microscopy at 48 h
T1 sequence: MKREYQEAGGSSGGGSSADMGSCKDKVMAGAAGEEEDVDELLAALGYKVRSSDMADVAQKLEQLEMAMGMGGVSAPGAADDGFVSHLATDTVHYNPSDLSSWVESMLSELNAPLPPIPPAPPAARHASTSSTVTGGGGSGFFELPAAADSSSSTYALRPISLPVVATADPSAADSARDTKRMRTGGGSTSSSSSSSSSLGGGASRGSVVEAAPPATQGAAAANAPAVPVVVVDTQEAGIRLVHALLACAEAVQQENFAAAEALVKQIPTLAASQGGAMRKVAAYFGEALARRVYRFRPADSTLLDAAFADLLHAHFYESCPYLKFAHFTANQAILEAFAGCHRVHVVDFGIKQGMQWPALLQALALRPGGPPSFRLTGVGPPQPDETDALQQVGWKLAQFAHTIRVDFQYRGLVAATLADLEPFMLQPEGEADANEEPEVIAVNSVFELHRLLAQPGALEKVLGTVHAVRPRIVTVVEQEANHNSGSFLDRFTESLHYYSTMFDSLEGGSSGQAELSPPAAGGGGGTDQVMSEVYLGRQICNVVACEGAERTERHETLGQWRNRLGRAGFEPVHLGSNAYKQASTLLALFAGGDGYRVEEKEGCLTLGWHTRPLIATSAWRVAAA

[2] = molecular target: T2, SLR1-cYFP (rice (Oryza sativa)) (UniProt Q7G7J6); assay: as above
T2 sequence: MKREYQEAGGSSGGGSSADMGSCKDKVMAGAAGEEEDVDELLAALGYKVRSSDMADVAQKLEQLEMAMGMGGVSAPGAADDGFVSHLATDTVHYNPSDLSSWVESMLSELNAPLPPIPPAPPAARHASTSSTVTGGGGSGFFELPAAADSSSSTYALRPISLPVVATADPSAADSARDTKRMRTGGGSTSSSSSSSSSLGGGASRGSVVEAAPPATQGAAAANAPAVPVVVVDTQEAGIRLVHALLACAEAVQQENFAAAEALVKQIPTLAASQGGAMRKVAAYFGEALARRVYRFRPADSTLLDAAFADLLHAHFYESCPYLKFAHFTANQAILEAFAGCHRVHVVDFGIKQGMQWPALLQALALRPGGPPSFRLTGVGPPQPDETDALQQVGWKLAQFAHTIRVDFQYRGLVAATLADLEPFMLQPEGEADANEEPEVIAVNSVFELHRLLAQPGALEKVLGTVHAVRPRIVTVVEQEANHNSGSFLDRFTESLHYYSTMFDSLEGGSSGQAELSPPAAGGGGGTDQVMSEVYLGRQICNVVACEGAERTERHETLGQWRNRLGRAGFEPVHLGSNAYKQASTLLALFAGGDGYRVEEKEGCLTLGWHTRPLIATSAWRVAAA

[3] = molecular target: T3, SLR1-flag (rice (Oryza sativa)) (UniProt Q7G7J6); assay: co-IP; N. benthamiana leaves co-expressing the tagged proteins, harvested 48 hpi; IP buffer 25 mM Tris-HCl pH 7.4, 150 mM NaCl, 1% NP-40; Flag-trap beads 2 h at 4 °C; immunoblot
T3 sequence: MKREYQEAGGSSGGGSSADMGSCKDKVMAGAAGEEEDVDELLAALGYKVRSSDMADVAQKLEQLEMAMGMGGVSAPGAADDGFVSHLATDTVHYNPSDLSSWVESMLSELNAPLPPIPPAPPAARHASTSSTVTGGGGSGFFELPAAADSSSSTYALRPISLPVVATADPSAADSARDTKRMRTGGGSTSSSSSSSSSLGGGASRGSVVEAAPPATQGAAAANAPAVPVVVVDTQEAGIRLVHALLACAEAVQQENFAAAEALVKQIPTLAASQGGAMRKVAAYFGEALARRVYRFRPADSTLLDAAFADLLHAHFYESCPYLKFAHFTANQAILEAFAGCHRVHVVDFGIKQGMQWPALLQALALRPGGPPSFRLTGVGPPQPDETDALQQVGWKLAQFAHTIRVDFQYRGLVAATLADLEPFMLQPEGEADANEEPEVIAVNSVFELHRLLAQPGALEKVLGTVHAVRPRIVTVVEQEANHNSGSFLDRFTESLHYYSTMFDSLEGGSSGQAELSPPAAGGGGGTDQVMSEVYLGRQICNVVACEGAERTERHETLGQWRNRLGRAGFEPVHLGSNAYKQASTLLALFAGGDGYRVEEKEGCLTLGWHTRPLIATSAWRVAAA

[4] = molecular target: T4, OsGID1-flag (rice (Oryza sativa)) (UniProt Q6L545); assay: as above
T4 sequence: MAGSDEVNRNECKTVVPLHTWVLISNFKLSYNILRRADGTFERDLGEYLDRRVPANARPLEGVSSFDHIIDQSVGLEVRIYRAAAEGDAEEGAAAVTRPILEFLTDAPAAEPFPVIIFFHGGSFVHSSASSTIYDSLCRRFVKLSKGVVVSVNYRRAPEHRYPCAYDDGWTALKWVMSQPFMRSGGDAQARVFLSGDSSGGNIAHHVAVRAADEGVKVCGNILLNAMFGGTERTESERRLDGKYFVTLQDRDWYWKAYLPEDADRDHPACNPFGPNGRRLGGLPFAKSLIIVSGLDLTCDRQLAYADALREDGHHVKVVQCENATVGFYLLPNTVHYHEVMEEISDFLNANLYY

[5] = molecular target: BD-SP8 (Southern rice black-streaked dwarf virus (SRBSDV)); assay: two-hybrid; pairwise co-transformation into yeast AH109; growth on SD/-Leu/-Trp/-His/-Ade plates at 30 °C, 3 days; viral proteins on BD, SLR1 and its derivatives on AD
[6] = molecular target: BD-RSMV M (Rice stripe mosaic virus (RSMV)); assay: as above
[7] = molecular target: BD-RBSDV P8 (Rice black-streaked dwarf virus (RBSDV)); assay: as above
[8] = molecular target: BD-RSV P2 (Rice stripe virus (RSV)); assay: as above
[9] = molecular target: GST-SP8 (Southern rice black-streaked dwarf virus (SRBSDV)); assay: pull-down; GST fusion or GST on GST beads with or without 100 µM GA3, 4 °C 1 h; MBP-His-OsGID1 added for 2 h; anti-His blot; both purified
[10] = molecular target: GST-P2 (Rice stripe virus (RSV)); assay: as above
[11] = molecular target: OsJAZ9 (yeast two-hybrid fusion) (rice (Oryza sativa)); assay: two-hybrid; pairwise co-transformation into yeast AH109; growth on SD/-Leu/-Trp/-His/-Ade plates at 30 °C, 3 days; viral proteins on BD, SLR1 and its derivatives on AD
[12] = molecular target: OsJAZ4 (yeast two-hybrid fusion) (rice (Oryza sativa)); assay: as above
[13] = molecular target: OsJAZ3 (yeast two-hybrid fusion) (rice (Oryza sativa)); assay: as above
[14] = molecular target: OsJAZ12 (yeast two-hybrid fusion) (rice (Oryza sativa)); assay: as above

Molecule: OsJAZ9-cYFP (rice (Oryza sativa))
- binding [1]: binds

Molecule: M-nYFP (Rice stripe mosaic virus (RSMV))
- binding [2]: binds

Molecule: P2-nYFP (Rice stripe virus (RSV))
- binding [2]: binds

Molecule: SP8-myc
- binding [3]: binds
- binding [4]: binds

B1: SLR1 region containing the GRAS element (AD fusion) (domain or fragment, UniProt Q7G7J6 232-621)
chain: VDTQEAGIRLVHALLACAEAVQQENFAAAEALVKQIPTLAASQGGAMRKVAAYFGEALARRVYRFRPADSTLLDAAFADLLHAHFYESCPYLKFAHFTANQAILEAFAGCHRVHVVDFGIKQGMQWPALLQALALRPGGPPSFRLTGVGPPQPDETDALQQVGWKLAQFAHTIRVDFQYRGLVAATLADLEPFMLQPEGEADANEEPEVIAVNSVFELHRLLAQPGALEKVLGTVHAVRPRIVTVVEQEANHNSGSFLDRFTESLHYYSTMFDSLEGGSSGQAELSPPAAGGGGGTDQVMSEVYLGRQICNVVACEGAERTERHETLGQWRNRLGRAGFEPVHLGSNAYKQASTLLALFAGGDGYRVEEKEGCLTLGWHTRPLIATSAWR
- binding [5]: binds
- binding [6]: binds
- binding [7]: binds
- binding [8]: binds

B2: OsGID1 (yeast two-hybrid fusion) (receptor, UniProt Q6L545 1-354)
chain: MAGSDEVNRNECKTVVPLHTWVLISNFKLSYNILRRADGTFERDLGEYLDRRVPANARPLEGVSSFDHIIDQSVGLEVRIYRAAAEGDAEEGAAAVTRPILEFLTDAPAAEPFPVIIFFHGGSFVHSSASSTIYDSLCRRFVKLSKGVVVSVNYRRAPEHRYPCAYDDGWTALKWVMSQPFMRSGGDAQARVFLSGDSSGGNIAHHVAVRAADEGVKVCGNILLNAMFGGTERTESERRLDGKYFVTLQDRDWYWKAYLPEDADRDHPACNPFGPNGRRLGGLPFAKSLIIVSGLDLTCDRQLAYADALREDGHHVKVVQCENATVGFYLLPNTVHYHEVMEEISDFLNANLYY
- binding [5]: binds
- binding [8]: binds

B3: MBP-His-OsGID1 (receptor)
chain: MAGSDEVNRNECKTVVPLHTWVLISNFKLSYNILRRADGTFERDLGEYLDRRVPANARPLEGVSSFDHIIDQSVGLEVRIYRAAAEGDAEEGAAAVTRPILEFLTDAPAAEPFPVIIFFHGGSFVHSSASSTIYDSLCRRFVKLSKGVVVSVNYRRAPEHRYPCAYDDGWTALKWVMSQPFMRSGGDAQARVFLSGDSSGGNIAHHVAVRAADEGVKVCGNILLNAMFGGTERTESERRLDGKYFVTLQDRDWYWKAYLPEDADRDHPACNPFGPNGRRLGGLPFAKSLIIVSGLDLTCDRQLAYADALREDGHHVKVVQCENATVGFYLLPNTVHYHEVMEEISDFLNANLYY
notes: OsGID1, the rice gibberellin receptor GIBBERELLIN … DWARF1; also called PET32a-MBP-His-OsGID1; source: E. coli Rosetta (DE3), purified (Ni-NTA His-trap column)
- binding [9]: binds
- binding [10]: binds

B4: AD-SLR1 (protein, UniProt Q7G7J6 1-625)
chain: MKREYQEAGGSSGGGSSADMGSCKDKVMAGAAGEEEDVDELLAALGYKVRSSDMADVAQKLEQLEMAMGMGGVSAPGAADDGFVSHLATDTVHYNPSDLSSWVESMLSELNAPLPPIPPAPPAARHASTSSTVTGGGGSGFFELPAAADSSSSTYALRPISLPVVATADPSAADSARDTKRMRTGGGSTSSSSSSSSSLGGGASRGSVVEAAPPATQGAAAANAPAVPVVVVDTQEAGIRLVHALLACAEAVQQENFAAAEALVKQIPTLAASQGGAMRKVAAYFGEALARRVYRFRPADSTLLDAAFADLLHAHFYESCPYLKFAHFTANQAILEAFAGCHRVHVVDFGIKQGMQWPALLQALALRPGGPPSFRLTGVGPPQPDETDALQQVGWKLAQFAHTIRVDFQYRGLVAATLADLEPFMLQPEGEADANEEPEVIAVNSVFELHRLLAQPGALEKVLGTVHAVRPRIVTVVEQEANHNSGSFLDRFTESLHYYSTMFDSLEGGSSGQAELSPPAAGGGGGTDQVMSEVYLGRQICNVVACEGAERTERHETLGQWRNRLGRAGFEPVHLGSNAYKQASTLLALFAGGDGYRVEEKEGCLTLGWHTRPLIATSAWRVAAA
- binding [11]: binds
- binding [12]: binds
- binding [13]: binds
- binding [5]: binds
- binding [6]: binds
- binding [7]: binds
- binding [8]: binds
- binding [14]: binds
